Assay results from PubChem BioAssay AID493014 (National Center for Advancing Translational Sciences (NCATS), 2011).
The list shows a part of the results. The main result of the screen is listed elsewhere. These columns were measured beside it and carry no call. Compounds called inactive in the main read-out are mostly missing here. The note in brackets gives the kind of curve behind each potency; many fits are weak.

Test: qHTS Assay to Find Inhibitors of Chronic Active B-Cell Receptor Signaling
Conditions: ABC-DLBCL IkBa-CBG/CBR reporter, luminescence ratio (green luciferase fused to IkBa over red control in TMD8 lymphoma cells), 4 h
Procedure, shortened: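 TMD8 ABC-DLBCL cells carrying doxycycline-inducible green luciferase fused to IkappaBalpha plus unfused red luciferase were exposed to compounds (up to 46 uM) for 4 hrs at 37C. Activity came from the overlap-corrected green/red luminescence ratio.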

[1] = measured here: CBR red luminescence, cell number
[2] = measured here: IkBa-CBG green luminescence

With O=C(CCS(=O)(=O)c1ccc(Cl)cc1)NCCC1=CCCCC1 the AC50 [1] was 20 µM [rising, partial curve, poor fit].
For C/C(CCN1CCc2nc(-c3ccccc3)c(-c3ccccc3)cc2C1)=N\OC[C@@H](C)[C@H](OCc1ccccc1)C(C)C, the AC50 [1] was 29.1 µM [rising, partial curve, poor fit].
For CCCCNC(=O)CNC(=O)c1nn(-c2ccc(OC)c(Cl)c2)c(=O)c2ccccc12, the AC50 [1] was 3.98 µM [falling, single point].
For COc1cc(CN2CCCC(C(=O)Nc3cccc(-n4cccn4)c3)C2)ccc1F (stereo unspecified), the AC50 [1] was 3.55 µM [falling, partial curve, poor fit].
With C[C@@H]1CCCCCCCCCCC1=O the AC50 [1] was 0.631 µM [rising, full curve, poor fit].
In the case of COC(=O)C(c1cc(OC)c(O)c(OC)c1)(N1CCNC(C)C1)C(F)(F)F (stereo unspecified), the AC50 [1] is reported as 13 µM [falling, partial curve, poor fit].
In the case of COc1cc(CNC(=O)c2cccc(COc3ccc(Cl)cc3)c2)cc(OC)c1, the AC50 [1] is reported as 29.1 µM [falling, single point].
With CC(=O)Nc1c([N+](=O)[O-])cc2[nH]c(=O)[nH]c2c1[N+](=O)[O-] the AC50 [1] was 2 µM [falling, full curve, poor fit].
For Cc1ccc(CN2CCN(CC(=O)N=Nc3c(O)[nH]c4ccccc34)CC2)cc1, the AC50 [1] was 6.51 µM [rising, partial curve, poor fit].
With CCOc1cccc(-c2c(C(=O)N/N=C/c3ccc(C)s3)nnn2-c2nonc2N)c1 the AC50 [1] was 5.62 µM [rising, partial curve, poor fit].
With O=[N+]([O-])c1cc(N=Nc2ccc3ccccc3c2)ccc1O the AC50 [1] was 0.398 µM [rising, full curve, poor fit].
With C/C(CC(=O)Nc1cc(Cl)ccc1Cl)=N\NC(=O)c1ccco1 the AC50 [1] was 12.6 µM [falling, partial curve, poor fit].
With CCc1ccc(NC(=O)COC(=O)C2(c3ccc(Cl)cc3)CCCC2)cc1 the AC50 [1] was 29.1 µM [falling, single point] and the AC50 [2] was 29.1 µM [rising, partial curve, poor fit].
In the case of COc1ccc(/C(N)=N/OC(=O)Cc2ccc(C)cc2)cc1, the AC50 [1] is reported as 16.4 µM [rising, partial curve, poor fit].
With O=C(COC(=O)CNC(=O)c1ccccc1F)NCCNC(=O)COC(=O)CNC(=O)c1ccccc1F the AC50 [1] was 3.66 µM [rising, full curve, poor fit].
For N/C(CC1CC1(Cl)Cl)=N\OC(=O)c1ccccc1 (stereo unspecified), the AC50 [1] was 10 µM [rising, partial curve].
With O=C(CSc1ncnc2c1cnn2CCc1ccccc1)Nc1cccc(C(F)(F)F)c1 the AC50 [1] was 20.6 µM [falling, single point].
With COc1ccc(-c2nnc3ccc(SCC(=O)N4CCCCC4)nn23)cc1OC the AC50 [1] was 29.1 µM [rising, single point].
For O=C(OCc1ccc(F)cc1)c1cc2ccccc2cc1O, the AC50 [1] was 5.01 µM [rising, partial curve].
In the case of CC(C)(C)c1cc(C(=O)C[n+]2ccc(C(=O)NCCCO)cc2)cc(C(C)(C)C)c1O, the AC50 [1] is reported as 22.4 µM [rising, single point].
With O=S(=O)(Cc1cc(N2CCOCC2)nc(-c2ccccn2)n1)c1ccccc1 the AC50 [1] was 17.8 µM [falling, partial curve, poor fit].
With COc1cccc(OC)c1NC(=O)CN1CCN(C)CC1 the AC50 [1] was 14.1 µM [rising, single point].
In the case of Cc1cc(C)n(-c2ccc(NC(=O)C3CCCCN3C(=O)c3cc(C)oc3C)cc2)n1 (stereo unspecified), the AC50 [1] is reported as 0.708 µM [falling, full curve, poor fit].
In the case of C#Cc1ccc([C@@H]2C=C(C(=O)NCc3ccccc3)O[C@H](OCC)[C@H]2CCCO)cc1, the AC50 [1] is reported as 31.6 µM [falling, single point].
With COc1ccc(-c2nnc(NC(=O)c3ccccc3C)o2)cc1 the AC50 [1] was 8.91 µM [falling, partial curve, poor fit] and the AC50 [2] was 35.5 µM [falling, single point].
For CCN(CC)c1nc2c(c(=O)[nH]c(=O)n2C)n1CCOc1ccccc1, the AC50 [2] was 5.01 µM [falling, partial curve, poor fit].
In the case of CC(C)[C@H](NS(=O)(=O)c1ccc2c(c1)OCCO2)C(=O)OCC(=O)Nc1cc(Cl)ccc1Cl, the AC50 [1] is reported as 29.1 µM [falling, single point].
With O=C(NC1CCN(S(=O)(=O)c2cccc(Cl)c2)CC1)C1CCCCC1 the AC50 [1] was 14.1 µM [rising, single point].
With CCCCCOc1ccc(NS(C)(=O)=O)cc1 the AC50 [1] was 5.62 µM [rising, single point].
For CC(C)(C)NC(=O)NC(=O)CN1CCN(S(=O)(=O)c2ccccc2)CC1, the AC50 [1] was 22.4 µM [falling, single point].
With O=C(Nn1cnc2ccccc2c1=O)c1ccc(Cl)c([N+](=O)[O-])c1 the AC50 [1] was 5.62 µM [rising, single point].
In the case of CC(C)OC(=O)c1ccc(N2C(=O)C3CC=CCC3C2=O)cc1 (stereo unspecified), the AC50 [1] is reported as 0.517 µM [rising, full curve, poor fit].
For C#CCSc1nc2sc3c(c2c(=O)n1C)CCC3, the AC50 [1] was 35.5 µM [rising, single point].
With CC(=O)Nc1cccc(/C(C)=N/NC(=O)c2ccc(O)cc2)c1 the AC50 [1] was 2.82 µM [falling, full curve].
For NNc1ncnc2c1cnn2-c1ccccc1, the AC50 [1] was 18.4 µM [falling, partial curve].
With Cc1ccc(NC(=O)c2ccc3ncsc3c2)cc1S(=O)(=O)N(C)C the AC50 [1] was 12.6 µM [falling, partial curve, poor fit].
With Cc1nn(C)c(Cl)c1CN1CCN(CC(C)C)C(CCO)C1 (stereo unspecified) the AC50 [1] was 35.5 µM [falling, single point].
For COc1ccc(CCNC(=O)CSc2ncc(C(=O)Nc3ccccc3)c(=O)n2C)cc1, the AC50 [1] was 29.1 µM [rising, single point].
In the case of CCSc1nnc(NC(=O)CSc2sc3c(O)cc(=O)[nH]c3c2C#N)s1, the AC50 [1] is reported as 31.6 µM [falling, single point].
